In the supplement of paper PMC10849652:
This is one part of the list.

Amino acid sequences for entries named in this document (tags omitted). A change or cut given only in a name is not applied to a line headed by its entry.
UniProt P02649, whole entry, looked up: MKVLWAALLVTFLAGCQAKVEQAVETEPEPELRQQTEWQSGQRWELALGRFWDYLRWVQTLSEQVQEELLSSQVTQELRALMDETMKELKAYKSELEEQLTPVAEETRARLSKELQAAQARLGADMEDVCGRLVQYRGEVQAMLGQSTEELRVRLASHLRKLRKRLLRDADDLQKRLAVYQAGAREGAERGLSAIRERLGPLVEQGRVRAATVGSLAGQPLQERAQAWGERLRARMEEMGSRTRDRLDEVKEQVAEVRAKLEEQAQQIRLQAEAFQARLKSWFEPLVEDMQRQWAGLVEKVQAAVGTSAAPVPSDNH
UniProt Q68EM7: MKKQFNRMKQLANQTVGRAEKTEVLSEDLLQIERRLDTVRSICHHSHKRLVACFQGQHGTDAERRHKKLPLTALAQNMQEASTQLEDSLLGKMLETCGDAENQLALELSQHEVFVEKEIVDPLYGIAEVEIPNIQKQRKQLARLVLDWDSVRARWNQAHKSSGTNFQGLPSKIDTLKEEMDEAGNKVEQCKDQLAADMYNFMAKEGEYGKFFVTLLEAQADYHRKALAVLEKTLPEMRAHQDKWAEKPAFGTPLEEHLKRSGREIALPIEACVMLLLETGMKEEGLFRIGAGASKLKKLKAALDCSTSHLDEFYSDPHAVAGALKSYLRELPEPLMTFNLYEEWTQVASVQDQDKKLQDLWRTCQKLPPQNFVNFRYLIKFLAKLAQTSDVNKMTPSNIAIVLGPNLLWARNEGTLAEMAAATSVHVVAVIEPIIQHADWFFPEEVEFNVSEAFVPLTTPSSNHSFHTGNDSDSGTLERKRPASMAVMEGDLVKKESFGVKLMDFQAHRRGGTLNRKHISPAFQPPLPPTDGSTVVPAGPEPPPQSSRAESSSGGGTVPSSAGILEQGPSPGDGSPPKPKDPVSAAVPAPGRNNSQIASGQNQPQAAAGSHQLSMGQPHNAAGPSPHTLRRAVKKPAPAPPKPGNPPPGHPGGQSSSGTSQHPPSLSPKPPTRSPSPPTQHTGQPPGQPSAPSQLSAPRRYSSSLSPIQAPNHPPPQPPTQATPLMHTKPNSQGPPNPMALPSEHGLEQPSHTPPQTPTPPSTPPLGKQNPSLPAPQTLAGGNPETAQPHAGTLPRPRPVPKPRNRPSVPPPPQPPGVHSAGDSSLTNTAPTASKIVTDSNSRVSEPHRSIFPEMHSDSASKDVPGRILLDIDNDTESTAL
UniProt Q9UJX3, whole entry, looked up: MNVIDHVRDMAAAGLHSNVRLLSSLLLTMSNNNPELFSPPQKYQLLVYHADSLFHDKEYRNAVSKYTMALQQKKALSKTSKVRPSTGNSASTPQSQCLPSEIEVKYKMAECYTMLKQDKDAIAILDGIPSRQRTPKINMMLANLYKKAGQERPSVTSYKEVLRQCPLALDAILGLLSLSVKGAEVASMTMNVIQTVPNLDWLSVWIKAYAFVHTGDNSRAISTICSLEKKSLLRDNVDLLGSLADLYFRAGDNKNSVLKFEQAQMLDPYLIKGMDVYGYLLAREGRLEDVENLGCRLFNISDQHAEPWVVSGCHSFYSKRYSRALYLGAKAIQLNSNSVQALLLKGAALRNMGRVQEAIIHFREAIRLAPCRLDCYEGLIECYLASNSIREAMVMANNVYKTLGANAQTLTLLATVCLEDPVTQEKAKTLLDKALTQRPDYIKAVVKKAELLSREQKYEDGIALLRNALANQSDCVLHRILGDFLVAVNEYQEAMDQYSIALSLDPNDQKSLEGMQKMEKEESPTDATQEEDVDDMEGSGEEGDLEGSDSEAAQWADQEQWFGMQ
UniProt P09525: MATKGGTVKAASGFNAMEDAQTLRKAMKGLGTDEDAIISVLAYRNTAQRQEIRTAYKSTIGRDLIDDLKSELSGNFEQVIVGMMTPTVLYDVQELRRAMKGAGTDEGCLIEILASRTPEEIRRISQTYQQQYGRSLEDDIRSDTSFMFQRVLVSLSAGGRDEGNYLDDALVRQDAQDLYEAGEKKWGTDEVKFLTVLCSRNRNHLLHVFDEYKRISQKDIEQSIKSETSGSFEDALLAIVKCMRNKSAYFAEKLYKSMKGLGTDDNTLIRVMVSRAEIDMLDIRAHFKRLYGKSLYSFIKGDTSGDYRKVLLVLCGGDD
UniProt O14617: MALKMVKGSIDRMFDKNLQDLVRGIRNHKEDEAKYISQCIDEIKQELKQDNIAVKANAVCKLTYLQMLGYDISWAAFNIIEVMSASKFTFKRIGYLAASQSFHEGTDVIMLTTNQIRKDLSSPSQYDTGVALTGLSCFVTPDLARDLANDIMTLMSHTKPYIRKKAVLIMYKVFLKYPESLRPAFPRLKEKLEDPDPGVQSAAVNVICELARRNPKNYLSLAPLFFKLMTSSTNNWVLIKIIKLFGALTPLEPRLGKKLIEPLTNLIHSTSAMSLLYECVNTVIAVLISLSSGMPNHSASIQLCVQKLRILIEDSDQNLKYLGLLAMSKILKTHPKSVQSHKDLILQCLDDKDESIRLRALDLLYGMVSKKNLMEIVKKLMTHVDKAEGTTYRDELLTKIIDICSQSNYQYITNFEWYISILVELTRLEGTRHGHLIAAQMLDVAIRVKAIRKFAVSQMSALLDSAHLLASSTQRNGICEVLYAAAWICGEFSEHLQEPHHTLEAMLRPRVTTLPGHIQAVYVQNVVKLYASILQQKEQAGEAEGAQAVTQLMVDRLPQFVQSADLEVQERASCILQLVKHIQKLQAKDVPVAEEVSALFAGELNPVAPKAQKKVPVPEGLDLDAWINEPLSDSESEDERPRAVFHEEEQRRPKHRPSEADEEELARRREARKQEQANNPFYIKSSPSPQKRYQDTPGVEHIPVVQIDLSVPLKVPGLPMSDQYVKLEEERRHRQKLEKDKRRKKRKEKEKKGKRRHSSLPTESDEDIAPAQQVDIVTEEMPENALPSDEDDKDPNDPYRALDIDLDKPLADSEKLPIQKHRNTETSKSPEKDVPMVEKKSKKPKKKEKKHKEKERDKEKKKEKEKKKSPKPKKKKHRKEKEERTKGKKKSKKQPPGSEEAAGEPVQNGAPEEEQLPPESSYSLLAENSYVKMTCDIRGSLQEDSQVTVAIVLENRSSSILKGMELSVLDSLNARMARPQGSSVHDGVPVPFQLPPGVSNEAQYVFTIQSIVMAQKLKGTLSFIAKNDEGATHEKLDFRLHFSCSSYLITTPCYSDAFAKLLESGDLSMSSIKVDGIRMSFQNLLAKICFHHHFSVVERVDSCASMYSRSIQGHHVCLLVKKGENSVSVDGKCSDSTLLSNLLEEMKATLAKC
UniProt Q92974: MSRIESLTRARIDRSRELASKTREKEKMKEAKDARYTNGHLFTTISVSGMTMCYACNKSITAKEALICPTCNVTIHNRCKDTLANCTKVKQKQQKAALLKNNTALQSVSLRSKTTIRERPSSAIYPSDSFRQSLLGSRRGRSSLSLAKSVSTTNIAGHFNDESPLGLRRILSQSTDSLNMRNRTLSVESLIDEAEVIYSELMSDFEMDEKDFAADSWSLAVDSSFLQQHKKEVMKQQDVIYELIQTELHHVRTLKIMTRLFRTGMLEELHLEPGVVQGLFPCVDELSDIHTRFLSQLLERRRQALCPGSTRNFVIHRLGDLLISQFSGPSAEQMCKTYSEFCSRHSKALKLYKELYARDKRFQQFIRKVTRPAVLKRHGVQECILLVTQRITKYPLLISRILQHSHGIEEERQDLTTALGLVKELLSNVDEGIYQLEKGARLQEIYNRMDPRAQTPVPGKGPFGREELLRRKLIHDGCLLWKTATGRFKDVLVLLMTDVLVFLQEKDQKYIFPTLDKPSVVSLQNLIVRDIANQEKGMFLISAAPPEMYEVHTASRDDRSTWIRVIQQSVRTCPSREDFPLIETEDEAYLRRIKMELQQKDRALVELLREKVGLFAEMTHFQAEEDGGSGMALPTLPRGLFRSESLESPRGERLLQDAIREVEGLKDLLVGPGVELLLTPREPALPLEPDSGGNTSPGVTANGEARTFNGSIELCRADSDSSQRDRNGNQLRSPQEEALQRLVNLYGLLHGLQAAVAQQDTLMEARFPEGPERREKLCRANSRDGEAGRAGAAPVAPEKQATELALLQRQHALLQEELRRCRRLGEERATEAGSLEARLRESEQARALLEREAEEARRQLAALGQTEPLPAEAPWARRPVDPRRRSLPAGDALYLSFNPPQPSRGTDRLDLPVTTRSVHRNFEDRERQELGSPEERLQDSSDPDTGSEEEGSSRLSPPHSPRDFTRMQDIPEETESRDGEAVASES
UniProt P12429: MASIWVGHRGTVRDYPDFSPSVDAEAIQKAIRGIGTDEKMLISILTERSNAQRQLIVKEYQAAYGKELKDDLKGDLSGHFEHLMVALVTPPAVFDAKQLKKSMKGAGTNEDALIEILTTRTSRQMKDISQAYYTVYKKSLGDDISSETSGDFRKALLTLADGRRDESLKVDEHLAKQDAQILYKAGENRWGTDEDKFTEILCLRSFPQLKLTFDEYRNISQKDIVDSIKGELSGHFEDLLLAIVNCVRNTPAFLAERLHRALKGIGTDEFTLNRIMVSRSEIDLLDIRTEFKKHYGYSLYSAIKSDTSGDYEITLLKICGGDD
UniProt P62330: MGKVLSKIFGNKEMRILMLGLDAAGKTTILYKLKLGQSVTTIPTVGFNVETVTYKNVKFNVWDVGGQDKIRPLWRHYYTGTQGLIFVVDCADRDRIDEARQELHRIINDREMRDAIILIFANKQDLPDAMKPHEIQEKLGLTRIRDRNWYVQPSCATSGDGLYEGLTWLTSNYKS
UniProt P52566: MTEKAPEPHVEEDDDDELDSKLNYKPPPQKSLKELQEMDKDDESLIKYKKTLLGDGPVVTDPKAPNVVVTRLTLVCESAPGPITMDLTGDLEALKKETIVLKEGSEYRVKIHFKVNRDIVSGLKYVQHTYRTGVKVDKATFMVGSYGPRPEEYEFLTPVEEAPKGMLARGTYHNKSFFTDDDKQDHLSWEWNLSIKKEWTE
UniProt Q9Y2T2: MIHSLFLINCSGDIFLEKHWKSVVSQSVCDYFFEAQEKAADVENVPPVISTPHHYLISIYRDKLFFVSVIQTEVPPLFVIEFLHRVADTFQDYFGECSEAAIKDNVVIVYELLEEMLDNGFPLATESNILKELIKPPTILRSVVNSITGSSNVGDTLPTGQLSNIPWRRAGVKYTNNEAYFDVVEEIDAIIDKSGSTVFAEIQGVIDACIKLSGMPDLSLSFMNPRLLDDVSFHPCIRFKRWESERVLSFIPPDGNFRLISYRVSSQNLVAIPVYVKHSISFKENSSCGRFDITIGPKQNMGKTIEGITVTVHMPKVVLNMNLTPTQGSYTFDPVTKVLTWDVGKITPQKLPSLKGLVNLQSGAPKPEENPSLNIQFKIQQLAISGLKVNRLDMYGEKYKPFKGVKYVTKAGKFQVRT
UniProt Q0VD83: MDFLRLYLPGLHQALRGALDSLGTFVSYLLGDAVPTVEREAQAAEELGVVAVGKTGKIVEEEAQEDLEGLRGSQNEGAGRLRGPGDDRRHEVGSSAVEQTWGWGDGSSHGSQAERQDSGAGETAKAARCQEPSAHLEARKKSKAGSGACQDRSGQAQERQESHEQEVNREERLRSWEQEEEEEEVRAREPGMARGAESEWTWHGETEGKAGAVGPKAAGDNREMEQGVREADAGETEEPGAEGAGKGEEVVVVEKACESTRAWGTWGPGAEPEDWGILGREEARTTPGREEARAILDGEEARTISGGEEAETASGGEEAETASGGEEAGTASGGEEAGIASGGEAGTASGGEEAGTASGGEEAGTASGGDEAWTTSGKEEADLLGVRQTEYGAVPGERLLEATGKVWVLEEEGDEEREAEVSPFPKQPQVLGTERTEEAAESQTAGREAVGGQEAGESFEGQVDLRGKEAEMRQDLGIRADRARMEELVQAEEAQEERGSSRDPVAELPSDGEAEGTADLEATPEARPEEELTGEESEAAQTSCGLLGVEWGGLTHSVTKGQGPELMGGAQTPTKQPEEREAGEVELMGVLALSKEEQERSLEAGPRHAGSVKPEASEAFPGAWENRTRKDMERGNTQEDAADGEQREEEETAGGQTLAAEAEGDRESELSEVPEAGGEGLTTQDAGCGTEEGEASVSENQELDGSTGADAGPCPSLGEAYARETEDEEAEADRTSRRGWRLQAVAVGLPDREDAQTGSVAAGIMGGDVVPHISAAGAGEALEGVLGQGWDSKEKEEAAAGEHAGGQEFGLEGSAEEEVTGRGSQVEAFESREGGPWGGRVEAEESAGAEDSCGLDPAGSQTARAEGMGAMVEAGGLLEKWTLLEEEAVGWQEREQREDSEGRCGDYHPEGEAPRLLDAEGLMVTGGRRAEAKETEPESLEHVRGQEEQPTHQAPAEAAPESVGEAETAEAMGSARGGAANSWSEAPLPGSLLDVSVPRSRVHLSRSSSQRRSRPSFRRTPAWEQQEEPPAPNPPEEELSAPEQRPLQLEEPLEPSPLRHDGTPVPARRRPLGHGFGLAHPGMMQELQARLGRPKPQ
UniProt P61966: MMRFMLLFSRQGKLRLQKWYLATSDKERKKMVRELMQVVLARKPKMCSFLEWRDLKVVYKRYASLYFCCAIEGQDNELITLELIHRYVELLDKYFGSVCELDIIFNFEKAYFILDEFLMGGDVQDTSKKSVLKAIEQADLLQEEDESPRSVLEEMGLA

How the values were obtained:
Experiment in all cases: log2 fold change, soluble protein after heating vs DMSO (PISA); higher = thermal stabilisation; K562 cells, 10 uM, 30 min; active = over 0.2 and 3.5 SD of the protein, either way, in both replicates (recomputed)
[1] = compound: CC[C@@H]1C(=O)N(C)c2cnc(Nc3ccc(C(=O)NC4CCN(C)CC4)cc3OC)nc2N1C1CCCC1
In short: (§1)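 For each measurement, 10 μM compound was applied for 30 min to K562 cells at 2×10^6 cells/mL. Aliquots were heated for 3 min across 48°C-58°C, pooled, and extracted in PBS with 0.5% NP-40 at 4°C; the supernatant after 21,000xg for 90 min was soluble protein. This was quantified by TMTpro 16plex LC-MS/MS with channel sums equalised, and thermal stability was reported relative to control samples from duplicates, on a log2 fold-change scale.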

volasertib = compound: CC[C@@H]1C(=O)N(C)c2cnc(Nc3ccc(C(=O)N[C@H]4CC[C@H](N5CCN(CC6CC6)CC5)CC4)cc3OC)nc2N1C(C)C [volasertib]
In short: as §1

[2] = compound: CC[C@H](C)N1C=C(C2=C(C=C(C=C21)C3=CN=C(C=C3)N4CCNCC4)C(=O)NCC5=C(C=C(NC5=O)C)C)C
In short: as §1

epoxomicin = compound: CC[C@H](C)[C@@H](C(=O)N[C@@H]([C@@H](C)O)C(=O)N[C@@H](CC(C)C)C(=O)[C@]1(CO1)C)NC(=O)[C@H]([C@@H](C)CC)N(C)C(=O)C [epoxomicin]
In short: as §1

[3] = compound: CCn1c(C(=O)N(C2CC2)C2CC2)cc2c3c(ncn3C)c(Nc3cc(C)n(C)n3)nc21
In short: as §1

[4] = compound: CCn1cc(-c2ccnc3[nH]c(-c4cccc(CN(C)C)c4)cc23)c(-c2ccc(NC(=O)N(C)C)cc2)n1
In short: as §1

[5] = compound: CN(C)CC(=O)Nc1ccc2[nH]c(=O)c3ccccc3c2c1
In short: as §1

rosiglitazone = compound: CN(CCOC1=CC=C(C=C1)C[C@H]2C(=O)NC(=O)S2)C3=CC=CC=N3 (racemic) [rosiglitazone]
In short: as §1

[6] = compound: CN1C2=C(C3=C1C(=O)N(N=C3)CC4=CC(=CC=C4)N)SC(=C2)S(=O)C
In short: as §1

[7] = compound: CN1CCC(CNc2ccc3ncc(-c4cccc(OC(F)(F)F)c4)n3n2)CC1
In short: as §1

saracatinib = compound: CN1CCN(CCOc2cc(OC3CCOCC3)c3c(Nc4c(Cl)ccc5c4OCO5)ncnc3c2)CC1 [saracatinib]
In short: as §1

sotrastaurin = compound: CN1CCN(c2nc(C3=C(c4c[nH]c5ccccc45)C(=O)NC3=O)c3ccccc3n2)CC1 [sotrastaurin]
In short: as §1

alvocidib = compound: CN1CC[C@H](c2c(O)cc(O)c3c(=O)cc(-c4ccccc4Cl)oc23)[C@H](O)C1 [alvocidib]
In short: as §1

Tubastatin A = compound: CN1CCc2c(c3ccccc3n2Cc2ccc(C(=O)NO)cc2)C1 [Tubastatin A]
In short: as §1

[8] = compound: CNC(=O)C1=CC=CC=C1NC2=NC(=NC=C2Cl)NC3=C(C=C(C=C3)N4CCOCC4)OC
In short: as §1

defactinib = compound: CNC(=O)c1ccc(Nc2ncc(C(F)(F)F)c(NCc3nccnc3N(C)S(C)(=O)=O)n2)cc1 [defactinib]
In short: as §1

rucaparib = compound: CNCc1ccc(-c2[nH]c3cc(F)cc4c3c2CCNC4=O)cc1 [rucaparib]
In short: as §1

[9] = compound: CNc1nc(-c2ccc3c(N)n[nH]c3c2)cc(N2C[C@@H](C(=O)NC3CCCCC3)CC[C@H]2C)n1
In short: as §1

encorafenib = compound: COC(=O)N[C@@H](C)CNc1nccc(-c2cn(C(C)C)nc2-c2cc(Cl)cc(NS(C)(=O)=O)c2F)n1 [encorafenib]
In short: as §1

[10] = compound: COC(=O)[C@H](CCSC)NC(=O)C1=C(C=C(C=C1)NC[C@H](CS)N)C2=CC=CC=C2
In short: as §1

Measured: log2 fold change

ARID1A (UniProt O14497)
inactive: [1] 0.064 | volasertib -0.123 | [2] -0.12 | epoxomicin -0.088 | [3] -0.082 | [4] -0.024 | [5] 0.104 | rosiglitazone -0.03 | [6] 0.278 | [7] -0.05 | saracatinib -0.088 | sotrastaurin -0.103 | alvocidib -0.042 | Tubastatin A 0.189 | [8] 0.054 | defactinib -0.168 | rucaparib -0.158 | [9] 0.092 | encorafenib 0.07 | [10] -0.079

APOE (UniProt P02649)
inactive: [1] 0.079 | volasertib 0.088 | [2] -0.067 | epoxomicin -0.133 | [3] 0.219 | [4] 0.03 | [5] -0.041 | rosiglitazone 0.004 | [6] 0.031 | [7] 0.056 | saracatinib 0.023 | sotrastaurin 0.07 | alvocidib -0.031 | Tubastatin A -0.043 | [8] 0.12 | defactinib 0.079 | rucaparib -0.048 | [9] 0 | encorafenib -0.035 | [10] -0.022

ARHGAP17 (UniProt Q68EM7)
inactive: [1] -0.085 | volasertib -0.374 | [2] 0.107 | epoxomicin -0.048 | [3] -0.176 | [4] 0 | [5] 0.055 | rosiglitazone 0.099 | [6] 0.108 | [7] -0.088 | saracatinib -0.245 | sotrastaurin -0.2 | alvocidib -0.029 | Tubastatin A 0.074 | [8] 0 | defactinib 0.017 | rucaparib 0.129 | [9] 0.009 | encorafenib 0.198 | [10] -0.005

ANAPC7 (UniProt Q9UJX3)
inactive: [1] -0.039 | volasertib -0.105 | [2] 0.041 | epoxomicin 0.025 | [3] 0.001 | [4] -0.049 | [5] 0.009 | rosiglitazone 0.011 | [6] 0.01 | [7] 0.021 | saracatinib -0.012 | sotrastaurin -0.055 | alvocidib -0.094 | Tubastatin A 0.045 | [8] -0.009 | defactinib -0.051 | rucaparib 0.079 | [9] 0.007 | encorafenib 0.028 | [10] -0.02

APOL2 (UniProt J3KQL8)
inactive: [1] 0.036 | volasertib -0.056 | [2] -0.017 | epoxomicin 0.088 | [3] -0.017 | [4] 0.041 | [5] 0.03 | rosiglitazone 0.042 | [6] -0.138 | [7] 0.045 | saracatinib -0.061 | sotrastaurin 0 | alvocidib 0.047 | Tubastatin A 0.044 | [8] -0.04 | defactinib -0.071 | rucaparib -0.068 | [9] -0.111 | encorafenib 0 | [10] -0.052

ANXA4 (UniProt P09525)
inactive: [1] -0.053 | volasertib -0.053 | [2] 0.053 | epoxomicin 0.024 | [3] -0.079 | [4] 0.002 | [5] 0.058 | rosiglitazone 0.039 | [6] 0.094 | [7] -0.146 | saracatinib -0.077 | sotrastaurin 0.02 | alvocidib -0.078 | Tubastatin A 0.004 | [8] 0.09 | defactinib -0.081 | rucaparib -0.02 | [9] 0.038 | encorafenib 0.03 | [10] 0

ARHGAP45 isoform 2 (UniProt Q92619)
inactive: [1] 0.003 | volasertib -0.085 | [2] -0.155 | epoxomicin -0.056 | [3] 0.028 | [4] 0.004 | [5] -0.048 | rosiglitazone 0.114 | [6] 0.07 | [7] 0.074 | saracatinib -0.005 | sotrastaurin -0.111 | alvocidib -0.005 | Tubastatin A -0.066 | [8] -0.016 | defactinib -0.111 | rucaparib 0.178 | [9] 0.005 | encorafenib 0.039 | [10] 0.101

AP3D1 isoform 5 (UniProt O14617)
inactive: [1] -0.032 | volasertib -0.156 | [2] 0.005 | epoxomicin -0.007 | [3] -0.028 | [4] -0.035 | [5] 0.048 | rosiglitazone 0.052 | [6] 0.024 | [7] -0.173 | saracatinib -0.087 | sotrastaurin -0.026 | alvocidib -0.018 | Tubastatin A 0.008 | [8] -0.011 | defactinib -0.021 | rucaparib 0.065 | [9] 0.016 | encorafenib 0.064 | [10] -0.035

ARHGEF2 (UniProt Q92974)
inactive: [1] 0.125 | volasertib -0.042 | [2] 0.133 | epoxomicin -0.304 | [3] -0.055 | [4] 0.162 | [5] 0.045 | rosiglitazone -0.052 | [6] 0.469 | [7] 0.071 | saracatinib -0.11 | sotrastaurin -0.101 | alvocidib 0.227 | Tubastatin A 0.122 | [8] -0.223 | defactinib 0.249 | rucaparib 0.519 | [9] 0.179 | encorafenib 0.23 | [10] -0.01

ANXA3 (UniProt P12429)
inactive: [1] -0.002 | volasertib -0.031 | [2] 0.033 | epoxomicin -0.018 | [3] 0.009 | [4] -0.012 | [5] -0.021 | rosiglitazone 0.036 | [6] -0.039 | [7] -0.011 | saracatinib 0.041 | sotrastaurin 0.049 | alvocidib -0.021 | Tubastatin A -0.013 | [8] -0.019 | defactinib 0.005 | rucaparib -0.06 | [9] -0.052 | encorafenib 0.063 | [10] -0.013

ARF6 (UniProt P62330)
inactive: [1] 0.06 | volasertib -0.071 | [2] -0.059 | epoxomicin -0.007 | [3] -0.008 | [4] -0.109 | [5] -0.052 | rosiglitazone 0.061 | [6] -0.124 | [7] 0.057 | saracatinib 0.012 | sotrastaurin 0.075 | alvocidib 0.001 | Tubastatin A -0.001 | [8] -0.077 | defactinib 0.02 | rucaparib -0.044 | [9] 0.013 | encorafenib 0.017 | [10] 0.02

APOA1 (UniProt P02647)
inactive: [1] 0.124 | volasertib 0.083 | [2] -0.044 | epoxomicin -0.425 | [3] 0.048 | [4] -0.067 | [5] -0.008 | rosiglitazone 0.154 | [6] 0.094 | [7] -0.03 | saracatinib -0.017 | sotrastaurin 0.236 | alvocidib -0.112 | Tubastatin A -0.026 | [8] 0.206 | defactinib 0.007 | rucaparib -0.183 | [9] 0.034 | encorafenib -0.098 | [10] 0.033

Retrieved one by one from the list above, 2 records:
ARF6 (UniProt P62330)
inactive: [1] 0.06 | volasertib -0.071 | [2] -0.059 | epoxomicin -0.007 | [3] -0.008 | [4] -0.109 | [5] -0.052 | rosiglitazone 0.061 | [6] -0.124 | [7] 0.057 | saracatinib 0.012 | sotrastaurin 0.075 | alvocidib 0.001 | Tubastatin A -0.001 | [8] -0.077 | defactinib 0.02 | rucaparib -0.044 | [9] 0.013 | encorafenib 0.017 | [10] 0.02

ARHGEF2 (UniProt Q92974)
inactive: [1] 0.125 | volasertib -0.042 | [2] 0.133 | epoxomicin -0.304 | [3] -0.055 | [4] 0.162 | [5] 0.045 | rosiglitazone -0.052 | [6] 0.469 | [7] 0.071 | saracatinib -0.11 | sotrastaurin -0.101 | alvocidib 0.227 | Tubastatin A 0.122 | [8] -0.223 | defactinib 0.249 | rucaparib 0.519 | [9] 0.179 | encorafenib 0.23 | [10] -0.01

Later entries

ARHGDIB (UniProt P52566)
inactive: [1] 0.01 | volasertib 0.018 | [2] 0.028 | epoxomicin 0.044 | [3] -0.024 | [4] -0.02 | [5] -0.009 | rosiglitazone 0.027 | [6] -0.027 | [7] -0.001 | saracatinib -0.038 | sotrastaurin 0.032 | alvocidib -0.054 | Tubastatin A 0.001 | [8] -0.037 | defactinib 0 | rucaparib -0.041 | [9] -0.02 | encorafenib 0.029 | [10] 0.013

AP3M1 (UniProt Q9Y2T2)
inactive: [1] -0.039 | volasertib -0.111 | [2] 0.041 | epoxomicin 0.016 | [3] -0.026 | [4] -0.018 | [5] 0.054 | rosiglitazone 0.071 | [6] -0.007 | [7] -0.06 | saracatinib 0.003 | sotrastaurin 0.024 | alvocidib -0.01 | Tubastatin A 0.034 | [8] 0.013 | defactinib -0.037 | rucaparib 0.029 | [9] 0.037 | encorafenib 0.077 | [10] -0.007

APOBR (UniProt Q0VD83)
inactive: [1] 0.015 | volasertib 0.045 | [2] -0.014 | epoxomicin 0.008 | [3] 0.013 | [4] 0.009 | [5] -0.07 | rosiglitazone -0.014 | [6] -0.034 | [7] 0.025 | saracatinib 0.017 | sotrastaurin 0.046 | alvocidib -0.014 | Tubastatin A -0.004 | [8] -0.041 | defactinib -0.001 | rucaparib 0.004 | [9] -0.075 | encorafenib -0.006 | [10] 0.035

AP1S1 (UniProt P61966)
inactive: [1] -0.014 | volasertib -0.175 | [2] 0.016 | epoxomicin -0.025 | [3] -0.042 | [4] 0.03 | [5] 0.029 | rosiglitazone 0.064 | [6] -0.054 | [7] -0.046 | saracatinib -0.023 | sotrastaurin -0.079 | alvocidib 0.007 | Tubastatin A -0.111 | [8] 0.071 | defactinib -0.055 | rucaparib -0.046 | [9] 0.024 | encorafenib 0.06 | [10] -0.015
